Reference: patent US20180256746A1 (Iono Pharma, LLC, priority 2017, published 2018)
Values joined by “and” are separate entries in the source; they are usually repeats but may differ in a detail not shown here. Equal entries are not always repeated. Structures can show the parent of a compound that is named as a salt.

Experiment: Determination of the bitterness threshold of clindamycin in volunteers

CCC[C@@H]1C[C@@H](C(=O)N[C@@H]([C@H]2O[C@H](SC)[C@H](O)[C@@H](O)[C@H]2O)[C@H](C)Cl)N(C)C1 [clindamycin, clindamycin hydrochloride]
concentration at which volunteers felt the bitterness (four adult volunteers, two at each value, hydrochloride): 10 µg/mL and 15 µg/mL | mean bitterness threshold (mean of four volunteers): 12.5 µg/mL | bitterness threshold as % of the clindamycin dose (relative to dose used (75 mg/5 ml)): approximately 0.1%
